Some test systems named below: E2F4 (human); EBF1 (human); EBP (human); ECE1 (human); ECE2 (human).
Test in all cases: protein microarray (ProtoArray v5.0), streptavidin-Alexa Fluor 647
Holding throughout (conditions): 3'-biotin; 20 mM Tris (pH 7.5), 5 mM MgCl2, 100 mM KCl, 0.1% Tween-20, A/T-rich and random oligonucleotide blockers; temperature not stated; high values mean tight binding

Experiment [1] concerns Deoxycytidine kinase (human).
For experiment [2], the system named is Deoxycytidylate deaminase (human).
In experiment [3] the test system is Diacylglycerol kinase epsilon (human).
In experiment [4] the test system is Differentially expressed in FDCP 6 homolog (human).
For experiment [5], the system named is Dihydroorotate dehydrogenase, mitochondrial (human).
Experiment [6] deals with Diphosphoinositol polyphosphate phosphohydrolase 3-alpha (human).
For experiment [7], the system named is Docking protein 6 (human).
The test system of experiment [8] is Dolichol-phosphate mannosyltransferase subunit 3 (human).
Experiment [9] has as its system Double C2-like domain-containing protein alpha (human).
In experiment [10] the test system is Down syndrome critical region protein 8 (human).
For experiment [11], the system named is Dual specificity mitogen-activated protein kinase kinase 3 (human).
Experiment [12] has as its system Dual specificity phosphatase DUPD1 (human).
Experiment [13] has as its system Dynein light chain roadblock-type 1 (human).
Experiment [14] concerns Dynein light chain roadblock-type 2 (human).
In experiment [15] the test system is E3 ubiquitin-protein ligase Arkadia (human).

The other results are listed elsewhere or left out.

Take “GGGAGGCTGAGGCAGG [G4-1 biotinylated (PQS2)]”: the binding signal in [1] was -0.343 z-score; in [2] it was -0.31 z-score; in experiment [3], -0.301 z-score; in [4] it was -0.361 z-score; in experiment [5], -0.331 z-score; in experiment [6] it was -0.286 z-score. In addition, the binding signal in experiment [7] was -0.312 z-score; in experiment [8] it was -0.281 z-score; in [9], -0.265 z-score; in experiment [10], -0.344 z-score; in experiment [11], -0.276 z-score; in experiment [12], -0.269 z-score. The binding signal in [13] is -0.295 z-score; in [14] it was -0.27 z-score; in the experiment on E2F4 (human), -0.348 z-score; in [15], -0.311 z-score; in the experiment with EBF1 (human) it was -0.329 z-score; with EBP (human), -0.313 z-score. The figures for the binding signal in the experiment on ECE1 (human) and in the experiment on ECE2 (human) were -0.34 z-score and -0.358 z-score, respectively.
